Measured values reported in PMC13103736.
For at least one entry, the source does not settle the construct or the ends of the probe. At least one verdict rests on a figure or table, not on a statement of the authors.

The chains behind the UniProt entries cited, without tags or fusion partners. Residues count along the entry.
UniProt P51608, 90-181: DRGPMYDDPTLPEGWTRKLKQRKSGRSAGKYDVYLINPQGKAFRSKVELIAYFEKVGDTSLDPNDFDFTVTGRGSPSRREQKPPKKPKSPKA

Target: MECP2 wt (Homo sapiens) (UniProt P51608)
Assay: EMSA
Conditions: 2 nM DNA; 5mC at position 12 of strand 2 (CpA strand); MECP2 EMSA: 20 mM HEPES, 30 mM KCl, 1 mM EDTA, 1 mM (NH4)2SO4, 0.2% Tween-20, pH 7.3, 1 mM DTT, 3.4 uM poly(A):poly(T), 21 C 20 min; recombinant protein; residues 90-181; label: 5'-FAM strand 1

AAAAAAAAAAATGAAAAAAAAAAA (double strand) [mCpA 24-mer dA/dT duplex (o4277+o4278)]
binding result: binds
